Source: patent US20240026024A1 (SHANGHAI HUAOTA BIOPHARMACEUTICAL, published 2024)
Changes are numbered by the printed parent chain. Results are given in words; binding and its absence hold for the method and conditions named. Some results given as binding are weak or reduced against the parent protein; the word gives no strength.

T1: CD73 (construct not stated) (Homo sapiens (Human)) (UniProt P21589)
T1 sequence: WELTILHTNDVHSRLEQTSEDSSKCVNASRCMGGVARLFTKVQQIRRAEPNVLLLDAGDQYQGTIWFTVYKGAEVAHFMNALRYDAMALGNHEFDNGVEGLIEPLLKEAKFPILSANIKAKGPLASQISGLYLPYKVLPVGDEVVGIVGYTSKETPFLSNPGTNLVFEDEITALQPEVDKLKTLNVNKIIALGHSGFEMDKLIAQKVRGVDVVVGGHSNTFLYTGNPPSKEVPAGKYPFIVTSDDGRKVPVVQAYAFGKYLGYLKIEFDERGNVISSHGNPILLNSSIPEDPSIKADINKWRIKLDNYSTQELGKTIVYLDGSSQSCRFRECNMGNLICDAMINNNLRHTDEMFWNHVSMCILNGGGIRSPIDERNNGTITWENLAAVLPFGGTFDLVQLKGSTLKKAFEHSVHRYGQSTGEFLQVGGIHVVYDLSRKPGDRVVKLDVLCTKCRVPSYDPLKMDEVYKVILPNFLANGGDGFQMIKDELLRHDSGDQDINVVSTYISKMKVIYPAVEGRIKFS

B1: 900581 (antibody, human IgG1, V domains shown)
VH: EVQLVESGGGLVKPGGSLKLSCAASGFTFSKYAMSWVRQSPEKRLEWVAEISSGGGYINYPDTVTGRFTISRDNAKNTLYLEMSSLRSGDTAMYYCARAIYYYGSSYNYYAMDYWGQGTSVTVSS
VL: DIVMTQSHKFMSTSVGDRVSITCKASQDVGTAEAWYQQKPGQSPKLLIYWASTRHTGVPDRFTGSGSGTDFTLTIGNVQSEDLADYFCQQYSSYPLTFGGGTKLEIK
B2: 900695 (antibody, V domains shown)
VH: QVQLVESGGGLVKPGGSLRLSCAASGFTFSKYAMSWVRQAPGKGLEWVAEISSGGGYINYADSVTGRFTISRDNAKNSLYLQMNSLRAEDTAVYYCARAIYYYGSSYNYYAMDYWGQGTTVTVSS
VL: DIQMTQSPSSLSASVGDRVTITCRASQDVGTAEAWYQQKPGKAPKLLIYWASTRHTGVPSRFSGSGSGTDFTLTISSLQPEDFATYYCQQYSSYPLTFGQGTKLEIK
notes: Constant regions are not restated
B3: 900696 (antibody, V domains shown)
VH: B2 VH with V37I, T65K
VL: B2 VL with R54L, H55Q, T56S
notes: as for B2
B4: 900698 (antibody, V domains shown)
VH: B2 VH with V37I, T65K
VL: B2 VL
notes: as for B2
B5: 900697 (antibody, V domains shown)
VH: B2 VH
VL: B2 VL with R54L, H55Q, T56S
notes: as for B2
B6: 900694 (antibody, V domains shown)
VH: B2 VH with Q1E, A61P, S63T
VL: B2 VL with S60D
notes: Constant regions are not restated; it was detected with anti-human Fc and captured on protein A

biological target: monkey CD73 (Novoprotein, Cat No. C121) (monkey); test: SPR (Biacore T200), protein A capture

binding | Binder
binds | B1
binds | B2
binds | B3
binds | B4
binds | B5
binds | B6

biological target: T1, CD73 (construct not stated) (Homo sapiens (Human)); test: HDX-MS of the antigen and antigen-binding protein complex

binding | Binder
binds | B1
